From publication PMC5738411
Results are given in words; binding and its absence hold for the method and conditions named. Binding seen in cells or lysates may run through a third protein. A yes stands for co-enrichment or nearness to the bait. Other partners may have been found. For part of these data: No binding means not detected with the bait.

The chains behind the UniProt entries cited, without tags or fusion partners. Where a name states a change or a piece, a line headed by the entry shows the natural chain unless it says otherwise. A line that says so, or that is headed by a name, gives the form on record, which may keep a tag or linker. Residues count along the entry.
UniProt Q9P246, residues 453-729: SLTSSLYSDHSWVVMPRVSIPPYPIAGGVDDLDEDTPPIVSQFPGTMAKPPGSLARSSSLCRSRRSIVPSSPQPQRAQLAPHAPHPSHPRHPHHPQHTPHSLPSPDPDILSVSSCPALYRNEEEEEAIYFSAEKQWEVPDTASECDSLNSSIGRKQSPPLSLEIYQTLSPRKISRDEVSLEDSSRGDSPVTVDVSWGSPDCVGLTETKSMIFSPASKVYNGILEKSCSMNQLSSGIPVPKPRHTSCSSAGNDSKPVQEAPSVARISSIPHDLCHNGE
Sarcoplasmic/endoplasmic reticulum Ca2+-ATPase 1a (SERCA1a) (P04191-2, form named): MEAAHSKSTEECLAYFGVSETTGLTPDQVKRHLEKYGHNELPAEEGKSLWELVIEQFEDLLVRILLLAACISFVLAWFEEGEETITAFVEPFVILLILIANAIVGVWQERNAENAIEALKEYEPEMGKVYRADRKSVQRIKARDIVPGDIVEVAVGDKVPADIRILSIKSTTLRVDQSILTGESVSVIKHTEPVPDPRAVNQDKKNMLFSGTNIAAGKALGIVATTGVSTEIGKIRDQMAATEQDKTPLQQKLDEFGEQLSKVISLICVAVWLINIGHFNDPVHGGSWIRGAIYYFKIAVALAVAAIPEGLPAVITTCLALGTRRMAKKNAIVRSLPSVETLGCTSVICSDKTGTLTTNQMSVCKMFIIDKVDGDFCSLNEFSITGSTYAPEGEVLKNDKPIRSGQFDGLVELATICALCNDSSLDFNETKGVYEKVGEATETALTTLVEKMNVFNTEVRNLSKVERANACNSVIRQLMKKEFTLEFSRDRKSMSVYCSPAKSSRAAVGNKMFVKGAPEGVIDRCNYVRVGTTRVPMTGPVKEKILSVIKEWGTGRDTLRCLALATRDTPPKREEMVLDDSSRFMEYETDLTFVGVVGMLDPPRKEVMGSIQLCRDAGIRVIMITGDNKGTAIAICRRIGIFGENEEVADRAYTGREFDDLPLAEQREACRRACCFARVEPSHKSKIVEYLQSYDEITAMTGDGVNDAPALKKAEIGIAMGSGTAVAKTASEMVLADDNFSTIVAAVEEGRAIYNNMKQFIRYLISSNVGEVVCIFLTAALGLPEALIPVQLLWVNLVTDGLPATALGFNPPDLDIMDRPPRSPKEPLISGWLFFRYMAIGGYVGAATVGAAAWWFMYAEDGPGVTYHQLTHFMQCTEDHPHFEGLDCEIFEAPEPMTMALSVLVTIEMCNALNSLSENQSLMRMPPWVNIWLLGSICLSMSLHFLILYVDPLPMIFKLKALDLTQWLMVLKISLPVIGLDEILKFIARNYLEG
UniProt P63284: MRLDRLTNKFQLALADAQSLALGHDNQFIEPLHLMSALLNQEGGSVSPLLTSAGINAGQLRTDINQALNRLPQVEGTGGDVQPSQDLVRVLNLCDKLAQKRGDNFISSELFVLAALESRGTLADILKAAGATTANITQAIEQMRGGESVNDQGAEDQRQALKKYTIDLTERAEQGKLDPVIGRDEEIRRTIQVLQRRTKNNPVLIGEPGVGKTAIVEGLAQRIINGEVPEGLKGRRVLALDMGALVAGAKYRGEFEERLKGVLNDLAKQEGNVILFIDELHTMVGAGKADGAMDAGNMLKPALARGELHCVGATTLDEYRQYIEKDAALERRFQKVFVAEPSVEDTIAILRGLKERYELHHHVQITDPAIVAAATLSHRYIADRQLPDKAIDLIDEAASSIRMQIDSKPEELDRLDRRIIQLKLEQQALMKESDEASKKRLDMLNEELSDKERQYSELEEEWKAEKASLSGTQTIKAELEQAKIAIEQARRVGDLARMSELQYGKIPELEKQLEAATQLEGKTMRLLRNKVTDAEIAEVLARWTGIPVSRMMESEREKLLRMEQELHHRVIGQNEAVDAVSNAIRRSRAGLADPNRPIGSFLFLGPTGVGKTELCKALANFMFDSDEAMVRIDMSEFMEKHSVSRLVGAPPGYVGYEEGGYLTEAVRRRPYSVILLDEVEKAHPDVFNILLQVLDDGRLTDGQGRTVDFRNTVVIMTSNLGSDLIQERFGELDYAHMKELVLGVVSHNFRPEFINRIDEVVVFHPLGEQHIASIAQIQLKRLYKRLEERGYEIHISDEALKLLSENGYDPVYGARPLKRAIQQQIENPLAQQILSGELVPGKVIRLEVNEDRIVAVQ

What was measured:
[1] = target: GST-fused STIM2-UI protein (amino acids 453 to 729 of STIM2) (human) (UniProt Q9P246); assay: affinity purification with mass spectrometry; GST-fused STIM2-UI immobilised on GST beads, incubated with 150 μg of solubilized rabbit triad sample for 8 h at 4 °C; bound proteins on 10% SDS-PAGE, Coomassie-stained bands digested in gel and identified by qTOF-MS; only the target purified
[2] = target: GST-fused STIM2-UI protein (amino acids 453 to 729 of STIM2) (human) (UniProt Q9P246); assay: affinity purification with mass spectrometry; same binding assay as a1; bands on the GST-fused STIM2-UI beads that came from the E. coli host, identified by qTOF-MS

| Molecule | binding [1] | binding [2] |
| --- | --- | --- |
| Sarcoplasmic/endoplasmic reticulum Ca2+-ATPase 1a (SERCA1a) (from UniProt P04191-2 1-994) | binds | – |
| Chaperone protein ClpB (from UniProt P63284 1-857) | – | no binding |
| 3-oxoacyl-[acyl-carrier-protein] synthase 1 (enzyme, UniProt P0A953 1-406) MKRAVITGLGIVSSIGNNQQEVLASLREGRSGITFSQELKDSGMRSHVWGNVKLDTTGLIDRKVVRFMSDASIYAFLSMEQAIADAGLSPEAYQNNPRVGLIAGSGGGSPRFQVFGADAMRGPRGLKAVGPYVVTKAMASGVSACLATPFKIHGVNYSISSACATSAHCIGNAVEQIQLGKQDIVFAGGGEELCWEMACEFDAMGALSTKYNDTPEKASRTYDAHRDGFVIAGGGGMVVVEELEHALARGAHIYAEIVGYGATSDGADMVAPSGEGAVRCMKMAMHGVDTPIDYLNSHGTSTPVGDVKELAAIREVFGDKSPAISATKAMTGHSLGAAGVQEAIYSLLMLEHGFIAPSINIEELDEQAAGLNIVTETTDRELTTVMSNSFGFGGTNATLVMRKLKD | – | no binding |
| Phenylalanine-tRNA ligase beta subunit (enzyme, UniProt P07395 1-795) MKFSELWLREWVNPAIDSDALANQITMAGLEVDGVEPVAGSFHGVVVGEVVECAQHPNADKLRVTKVNVGGDRLLDIVCGAPNCRQGLRVAVATIGAVLPGDFKIKAAKLRGEPSEGMLCSFSELGISDDHSGIIELPADAPIGTDIREYLKLDDNTIEISVTPNRADCLGIIGVARDVAVLNQLPLVQPEIVPVGATIDDTLPITVEAPEACPRYLGRVVKGINVKAPTPLWMKEKLRRCGIRSIDAVVDVTNYVLLELGQPMHAFDKDRIEGGIVVRMAKEGETLVLLDGTEAKLNADTLVIADHNKALAMGGIFGGEHSGVNDETQNVLLECAFFSPLSITGRARRHGLHTDASHRYERGVDPALQHKAMERATRLLIDICGGEAGPVIDITNEATLPKRATITLRRSKLDRLIGHHIADEQVTDILRRLGCEVTEGKDEWQAVAPSWRFDMEIEEDLVEEVARVYGYNNIPDEPVQASLIMGTHREADLSLKRVKTLLNDKGYQEVITYSFVDPKVQQMIHPGVEALLLPSPISVEMSAMRLSLWTGLLATVVYNQNRQQNRVRIFESGLRFVPDTQAPLGIRQDLMLAGVICGNRYEEHWNLAKETVDFYDLKGDLESVLDLTGKLNEVEFRAEANPALHPGQSAAIYLKGERIGFVGVVHPELERKLDLNGRTLVFELEWNKLADRVVPQAREISRFPANRRDIAVVVAENVPAADILSECKKVGVNQVVGVNLFDVYRGKGVAEGYKSLAISLILQDTSRTLEEEEIAATVAKCVEALKERFQASLRD | – | no binding |
| Fructose-bisphosphate aldolase class 2 (enzyme, UniProt P0AB71 1-359) MSKIFDFVKPGVITGDDVQKVFQVAKENNFALPAVNCVGTDSINAVLETAAKVKAPVIVQFSNGGASFIAGKGVKSDVPQGAAILGAISGAHHVHQMAEHYGVPVILHTDHCAKKLLPWIDGLLDAGEKHFAATGKPLFSSHMIDLSEESLQENIEICSKYLERMSKIGMTLEIELGCTGGEEDGVDNSHMDASALYTQPEDVDYAYTELSKISPRFTIAASFGNVHGVYKPGNVVLTPTILRDSQEYVSKKHNLPHNSLNFVFHGGSGSTAQEIKDSVSYGVVKMNIDTDTQWATWEGVLNYYKANEAYLQGQLGNPKGEDQPNKKYYDPRVWLRAGQTSMIARLEKAFQELNAIDVL | – | no binding |
| Peptidyl-prolyl cis-trans isomerase D (enzyme, UniProt P0ADY1 1-623) MMDSLRTAANSLVLKIIFGIIIVSFILTGVSGYLIGGGNNYAAKVNDQEISRGQFENAFNSERNRMQQQLGDQYSELAANEGYMKTLRQQVLNRLIDEALLDQYARELKLGISDEQVKQAIFATPAFQVDGKFDNSRYNGILNQMGMTADQYAQALRNQLTTQQLINGVAGTDFMLKGETDELAALVAQQRVVREATIDVNALAAKQPVTEQEIASYYEQNKNNFMTPEQFRVSYIKLDAATMQQPVSDADIQSYYDQHQDQFTQPQRTRYSIIQTKTEDEAKAVLDELNKGGDFAALAKEKSADIISARNGGDMGWLEDATIPDELKNAGLKEKGQLSGVIKSSVGFLIVRLDDIQPAKVKSLDEVRDDIAAKVKHEKALDAYYALQQKVSDAASNDTESLAGAEQAAGVKATQTGWFSKDNLPEELNFKPVADAIFNGGLVGENGAPGINSDIITVDGDRAFVLRISEHKPEAVKPLADVQEQVKALVQHNKAEQQAKVDAEKLLVDLKAGKGAEAMQAAGLKFGEPKTLSRSGRDPISQAAFALPLPAKDKPSYGMATDMQGNVVLLALDEVKQGSMPEDQKKAMVQGITQNNAQIVFEALMSNLRKEAKIKIGDALEQQ | – | no binding |
